Source: a melting point compilation (Tetko et al.)

COC1C(OC(C)=O)CC(=O)OC(C)CC=CC=CC(=O)C(C)CC(CC=O)C1OC1OC(C)C(OC2CC(C)(O)C(OC(=O)CC(C)C)C(C)O2)C(N(C)C)C1O (stereo unspecified)
melting point: 193 to 200 °C
